# Measured values reported in the supplement of paper PMC8728848.
# Some of the results follow.
# Experiments:
# Test in all cases: glycan array binding signal (z-score within array); higher = stronger binding
# Conditions in all cases: glycan notation: IUPAC condensed, linker removed
# [1] = molecular target: Gal(b1-3)GlcNAc(b1-6)[Gal(b1-3)]GalNAc
# In short: (§1)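 Columns mapping to the same glycan were averaged after glycan names were converted to IUPAC-condensed notation. The data come from 3228 arrays in the Consortium for Functional Glycomics database, limited to those with an available protein sequence. Binding is reported as a within-array Z-score averaged across arrays of one protein sequence and across linkers.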
# Gal(b1-3)GlcNAc6S = molecular target: Gal(b1-3)GlcNAc6S
# In short: as §1
# [2] = molecular target: Gal(b1-3)[Fuc(a1-4)]GlcNAc
# In short: as §1
# [3] = molecular target: Gal(b1-3)[Fuc(a1-4)]GlcNAc(b1-2)Man
# In short: as §1
# [4] = molecular target: Gal(b1-3)[Fuc(a1-4)]GlcNAc(b1-2)Man(a1-3)[Gal(b1-3)[Fuc(a1-4)]GlcNAc(b1-2)Man(a1-6)]Man(b1-4)GlcNAc(b1-4)[Fuc(a1-6)]GlcNAc
# In short: as §1
# [5] = molecular target: Gal(b1-3)[Fuc(a1-4)]GlcNAc(b1-3)Gal(b1-3)[Fuc(a1-4)]GlcNAc
# In short: as §1
# [6] = molecular target: Gal(b1-3)[Fuc(a1-4)]GlcNAc(b1-3)Gal(b1-4)[Fuc(a1-3)]GlcNAc
# In short: as §1
# [7] = molecular target: Gal(b1-3)[Fuc(a1-4)]GlcNAc(b1-6)GalNAc
# In short: as §1
# [8] = molecular target: Gal(b1-3)[GlcNAc(b1-6)]GalNAc
# In short: as §1
# [9] = molecular target: Gal(b1-3)[Neu5Ac(a2-6)]GalNAc
# In short: as §1
# [10] = molecular target: Gal(b1-3)[Neu5Ac(a2-6)]GlcNAc(b1-4)Gal(b1-4)Glc
# In short: as §1
# [11] = molecular target: Gal(b1-3)[Neu5Ac(b2-6)]GalNAc
# In short: as §1
# Gal(b1-4)Gal = molecular target: Gal(b1-4)Gal
# In short: as §1
# [12] = molecular target: Gal(b1-4)GalNAc(a1-3)[Fuc(a1-2)]Gal(b1-4)GlcNAc
# In short: as §1
# [13] = molecular target: Gal(b1-4)GalNAc(b1-3)[Fuc(a1-2)]Gal(b1-4)GlcNAc
# In short: as §1
# Gal(b1-4)Glc = molecular target: Gal(b1-4)Glc
# In short: as §1
# Gal(b1-4)Glc6S = molecular target: Gal(b1-4)Glc6S
# In short: as §1
# Gal(b1-4)GlcNAc = molecular target: Gal(b1-4)GlcNAc
# In short: as §1
# [14] = molecular target: Gal(b1-4)GlcNAc(a1-6)Gal(b1-4)GlcNAc
# In short: as §1
# Gal(b1-4)GlcNAc(b1-2)Man = molecular target: Gal(b1-4)GlcNAc(b1-2)Man
# In short: as §1
# [15] = molecular target: Gal(b1-4)GlcNAc(b1-2)Man(a1-3)Man(b1-4)GlcNAc(b1-4)GlcNAc
# In short: as §1
# [16] = molecular target: Gal(b1-4)GlcNAc(b1-2)Man(a1-3)[Gal(b1-4)GlcNAc(b1-2)Man(a1-6)]Man(b1-4)GlcNAc(b1-4)GlcNAc
# In short: as §1
# [17] = molecular target: Gal(b1-4)GlcNAc(b1-2)Man(a1-3)[Gal(b1-4)GlcNAc(b1-2)Man(a1-6)]Man(b1-4)GlcNAc(b1-4)[Fuc(a1-6)]GlcNAc
# In short: as §1
# [18] = molecular target: Gal(b1-4)GlcNAc(b1-2)Man(a1-3)[Gal(b1-4)GlcNAc(b1-2)Man(a1-6)][Gal(b1-4)GlcNAc(b1-4)]Man(b1-4)GlcNAc(b1-4)[Fuc(a1-6)]GlcNAc
# In short: as §1
# [19] = molecular target: Gal(b1-4)GlcNAc(b1-2)Man(a1-3)[Gal(b1-4)GlcNAc(b1-2)Man(a1-6)][GlcNAc(b1-4)]Man(b1-4)GlcNAc(b1-4)[Fuc(a1-6)]GlcNAc
# In short: as §1
# [20] = molecular target: Gal(b1-4)GlcNAc(b1-2)Man(a1-3)[GlcNAc(b1-2)Man(a1-6)]Man(b1-4)GlcNAc(b1-4)GlcNAc
# In short: as §1
# [21] = molecular target: Gal(b1-4)GlcNAc(b1-2)Man(a1-3)[GlcNAc(b1-4)][Gal(b1-4)GlcNAc(b1-2)Man(a1-6)]Man(b1-4)GlcNAc(b1-4)GlcNAc
# In short: as §1
# [22] = molecular target: Gal(b1-4)GlcNAc(b1-2)Man(a1-3)[Man(a1-6)]Man(b1-4)GlcNAc(b1-4)GlcNAc
# In short: as §1
# [23] = molecular target: Gal(b1-4)GlcNAc(b1-2)Man(a1-6)Man(b1-4)GlcNAc(b1-4)GlcNAc
# In short: as §1
# [24] = molecular target: Gal(b1-4)GlcNAc(b1-2)Man(a1-6)[GlcNAc(b1-2)Man(a1-3)]Man(b1-4)GlcNAc(b1-4)GlcNAc
# In short: as §1
# [25] = molecular target: Gal(b1-4)GlcNAc(b1-2)Man(a1-6)[Man(a1-3)]Man(b1-4)GlcNAc(b1-4)GlcNAc
# In short: as §1
# [26] = molecular target: Gal(b1-4)GlcNAc(b1-2)[Gal(b1-4)GlcNAc(b1-4)]Man(a1-3)[Gal(b1-4)GlcNAc(b1-2)Man(a1-6)]Man(b1-4)GlcNAc(b1-4)GlcNAc
# In short: as §1
# [27] = molecular target: Gal(b1-4)GlcNAc(b1-2)[Gal(b1-4)GlcNAc(b1-4)]Man(a1-3)[Gal(b1-4)GlcNAc(b1-2)[Gal(b1-4)GlcNAc(b1-6)]Man(a1-6)]Man(b1-4)GlcNAc(b1-4)GlcNAc
# In short: as §1
# [28] = molecular target: Gal(b1-4)GlcNAc(b1-2)[Gal(b1-4)GlcNAc(b1-4)]Man(a1-3)[GlcNAc(b1-4)][Gal(b1-4)GlcNAc(b1-2)Man(a1-6)]Man(b1-4)GlcNAc(b1-4)GlcNAc
# In short: as §1
# [29] = molecular target: Gal(b1-4)GlcNAc(b1-2)[Gal(b1-4)GlcNAc(b1-4)]Man(a1-3)[GlcNAc(b1-4)][Gal(b1-4)GlcNAc(b1-2)[Gal(b1-4)GlcNAc(b1-6)]Man(a1-6)]Man(b1-4)GlcNAc(b1-4)GlcNAc
# In short: as §1
# [30] = molecular target: Gal(b1-4)GlcNAc(b1-2)[Gal(b1-4)GlcNAc(b1-6)]Man(a1-6)[Gal(b1-4)GlcNAc(b1-2)Man(a1-3)]Man(b1-4)GlcNAc(b1-4)GlcNAc
# In short: as §1
# [31] = molecular target: Gal(b1-4)GlcNAc(b1-2)[Gal(b1-4)GlcNAc(b1-6)]Man(a1-6)[Gal(b1-4)GlcNAc(b1-2)Man(a1-3)]Man(b1-4)GlcNAc(b1-4)[Fuc(a1-6)]GlcNAc
# In short: as §1
# [32] = molecular target: Gal(b1-4)GlcNAc(b1-2)[Gal(b1-4)GlcNAc(b1-6)]Man(a1-6)[GlcNAc(b1-4)][Gal(b1-4)GlcNAc(b1-2)Man(a1-3)]Man(b1-4)GlcNAc(b1-4)GlcNAc
# In short: as §1
# [33] = molecular target: Gal(b1-4)GlcNAc(b1-2)[Gal(b1-4)GlcNAc(b1-6)]Man(a1-6)[GlcNAc(b1-4)][Gal(b1-4)GlcNAc(b1-2)[Gal(b1-4)GlcNAc(b1-4)]Man(a1-3)]Man(b1-4)GlcNAc(b1-4)[Fuc(a1-6)]GlcNAc
# In short: as §1
# [34] = molecular target: Gal(b1-4)GlcNAc(b1-3)Gal(b1-3)GalNAc
# In short: as §1
# [35] = molecular target: Gal(b1-4)GlcNAc(b1-3)Gal(b1-3)GlcNAc
# In short: as §1
# [36] = molecular target: Gal(b1-4)GlcNAc(b1-3)Gal(b1-4)Glc
# In short: as §1
# [37] = molecular target: Gal(b1-4)GlcNAc(b1-3)Gal(b1-4)GlcNAc
# In short: as §1
# [38] = molecular target: Gal(b1-4)GlcNAc(b1-3)Gal(b1-4)GlcNAc(b1-2)Man(a1-3)[Gal(b1-4)GlcNAc(b1-3)Gal(b1-4)GlcNAc(b1-2)Man(a1-6)]Man(b1-4)GlcNAc(b1-4)GlcNAc
# In short: as §1
# [39] = molecular target: Gal(b1-4)GlcNAc(b1-3)Gal(b1-4)GlcNAc(b1-2)Man(a1-3)[Gal(b1-4)GlcNAc(b1-3)Gal(b1-4)GlcNAc(b1-2)Man(a1-6)]Man(b1-4)GlcNAc(b1-4)[Fuc(a1-6)]GlcNAc
# In short: as §1
binder,measurement,setting,value
"Langerin K299A/K313A (Homo sapiens), Q9UJ71 (protein) STLNAQIPELKSDLEKASALNTKIRALQGSLENMSKLLKRQNDILQVVSQGWKYFKGNFYYFSLIPKTWYSAEQFCVSRNSHLTSVTSESEQEFLYKTAGGLIYWIGLTKAGMEGDWSWVDDTPFNKVQSARFWIPGEPNNAGNNEHCGNIAAPSLQAWNDAPCDATFLFICKRPYVPSEP",glycan array binding signal (z-score),[1],-0.7
same,glycan array binding signal (z-score),Gal(b1-3)GlcNAc6S,-0.632
same,glycan array binding signal (z-score),[2],-0.481
same,glycan array binding signal (z-score),[3],-0.581
same,glycan array binding signal (z-score),[4],1.85
same,glycan array binding signal (z-score),[5],0.096
same,glycan array binding signal (z-score),[6],-0.099
same,glycan array binding signal (z-score),[7],0.758
same,glycan array binding signal (z-score),[8],-0.163
same,glycan array binding signal (z-score),[9],0.445
same,glycan array binding signal (z-score),[10],-0.022
same,glycan array binding signal (z-score),[11],-0.281
same,glycan array binding signal (z-score),Gal(b1-4)Gal,0.458
same,glycan array binding signal (z-score),[12],-0.793
same,glycan array binding signal (z-score),[13],0.446
same,glycan array binding signal (z-score),Gal(b1-4)Glc,0.163
same,glycan array binding signal (z-score),Gal(b1-4)Glc6S,-0.674
same,glycan array binding signal (z-score),Gal(b1-4)GlcNAc,-0.411
same,glycan array binding signal (z-score),[14],-0.727
same,glycan array binding signal (z-score),Gal(b1-4)GlcNAc(b1-2)Man,-0.733
same,glycan array binding signal (z-score),[15],-0.806
same,glycan array binding signal (z-score),[16],-0.291
same,glycan array binding signal (z-score),[17],0.706
same,glycan array binding signal (z-score),[18],-1.07
same,glycan array binding signal (z-score),[19],-0.072
same,glycan array binding signal (z-score),[20],-0.25
same,glycan array binding signal (z-score),[21],-1.28
same,glycan array binding signal (z-score),[22],0.157
same,glycan array binding signal (z-score),[23],-1.18
same,glycan array binding signal (z-score),[24],-0.751
same,glycan array binding signal (z-score),[25],-0.914
same,glycan array binding signal (z-score),[26],0.381
same,glycan array binding signal (z-score),[27],-0.403
same,glycan array binding signal (z-score),[28],-0.95
same,glycan array binding signal (z-score),[29],-0.204
same,glycan array binding signal (z-score),[30],0.52
same,glycan array binding signal (z-score),[31],1.26
same,glycan array binding signal (z-score),[32],-0.291
same,glycan array binding signal (z-score),[33],0.35
same,glycan array binding signal (z-score),[34],-0.417
same,glycan array binding signal (z-score),[35],-1.11
same,glycan array binding signal (z-score),[36],-0.709
same,glycan array binding signal (z-score),[37],-0.206
same,glycan array binding signal (z-score),[38],3.14
same,glycan array binding signal (z-score),[39],1.43

# An excerpt of these results, as tab-separated lines:
binder	measurement	setting	value
Langerin K299A/K313A (Homo sapiens), Q9UJ71 (protein) STLNAQIPELKSDLEKASALNTKIRALQGSLENMSKLLKRQNDILQVVSQGWKYFKGNFYYFSLIPKTWYSAEQFCVSRNSHLTSVTSESEQEFLYKTAGGLIYWIGLTKAGMEGDWSWVDDTPFNKVQSARFWIPGEPNNAGNNEHCGNIAAPSLQAWNDAPCDATFLFICKRPYVPSEP	glycan array binding signal (z-score)	Gal(b1-4)Gal	0.458
same	glycan array binding signal (z-score)	[12]	-0.793
